Measured values as given in patent US20250295639A1, “METHODS FOR TREATING HEART DISEASES” (Cytokinetics, Incorporated, priority 2024, published 2025).

System: patients with symptomatic oHCM
Assay: SEQUOIA-HCM: cardiac biomarkers NT-proBNP and hs-cTnI
Format: in vivo, human
Settings: 24-week treatment period
Text: A further exploratory objective of this trial was to evaluate the effect of aficamten on biomarker levels, as determined by changes from baseline values in NT-pro-BNP, hs-cardiac-TnI and other biomarkers through Week 24. Cardiac biomarkers. Aficamten treatment led to an immediate and significant reduction in both NT-proBNP and hs-cTnI, with substantial lowering of both biomarkers by week 2. […] Biomarker lowering persisted to week 24 when the relative reduction from baseline was-80% (95% CI-83%, −77%, p<0.001) in NT-proBNP and −43% (−49%, […], p<0.001) in hs-cTnI. […] Serum levels of NT-proBNP decreased from baseline to week 24 from 735 (604, 894) ng/L to 143 (120, 171) ng/L in patients receiving aficamten and remained unchanged from 710 (587, 859) ng/L to 717 (596, 863) ng/L in those receiving placebo, while hs-troponin decreased from 17.1 (14.1, 20.8) ng/L to 9.5 (8.0, 11.3) ng/L with aficamten and remained unchanged from 16.6 (13.3, 20.7) to 16.5 (13.7, 19.9) ng/L in placebo (P<0.001 for both comparisons compared to placebo). […] In contrast hs-cTnI reduction reflected 3% (−18%, 30%) of aficamten's effect on pVO2.

CCc1nc(-c2ccc3c(c2)CC[C@H]3NC(=O)c2cnn(C)c2)no1 [aficamten, (R)—N-(5-(5-ethyl-1,2,4-oxadiazol-3-yl)-2,3-dihydro-1H-inden-1-yl)-1-methyl-1H-pyrazole-4-carboxamide]
share of aficamten's effect on pVO2 reflected by NT-proBNP reduction (mediation analysis): 101% | share of aficamten's effect on pVO2 reflected by hs-cTnI reduction (mediation analysis): 3%
